From the supplement of paper PMC4604168 (melanoma cell lines)
The list shows a part of the results. Many values rest on one well or one pass, so single values are uncertain.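 Cells were imaged in 1,536-well plates, and nuclei stained with an antibody against cleaved PARP were counted against all DNA-stained nuclei to give the apoptosis fraction. Screening doses were chosen to leave most cells alive, and resting and induced cleaved-PARP levels differ strongly between cell lines.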

Tests used:
Assay in all cases: cleaved PARP positive nuclei fraction relative to DMSO control; melanoma cells; higher = more apoptosis
Conditions in all cases: library dose: low library concentration; 72 h
[1] = tested on: CBRC034 (line from a melanoma biopsy)
[2] = tested on: COLO792
[3] = tested on: COLO800
[4] = tested on: COLO829
[5] = tested on: G361
[6] = tested on: IPC-298
[7] = tested on: IST-MEL1
[8] = tested on: LB2518-MEL
[9] = tested on: LOXIMVI
[10] = tested on: MEL-HO

| SMILES | cleaved PARP positive nuclei fraction [1] | cleaved PARP positive nuclei fraction [2] | cleaved PARP positive nuclei fraction [3] | cleaved PARP positive nuclei fraction [4] | cleaved PARP positive nuclei fraction [5] | cleaved PARP positive nuclei fraction [6] | cleaved PARP positive nuclei fraction [7] | cleaved PARP positive nuclei fraction [8] | cleaved PARP positive nuclei fraction [9] | cleaved PARP positive nuclei fraction [10] |
| --- | --- | --- | --- | --- | --- | --- | --- | --- | --- | --- |
| C[C@]12O[C@H](C[C@]1(O)CO)n1c3ccccc3c3c4c(c5c6ccccc6n2c5c31)CNC4=O [Lestaurtinib] + C=C(c1ccc(C(=O)O)cc1)c1cc2c(cc1C)C(C)(C)CCC2(C)C [Bexarotene] (first compound 0.004 µM, partner dose 2 µM) | 166% | 114% | 43.6% | 45.9% | 79.7% | 82.8% | 86.4% | 50.7% | 115% | 85.3% |
| Cc1cc(Nc2cc(N3CCN(C)CC3)nc(Sc3ccc(NC(=O)C4CC4)cc3)n2)n[nH]1 [Tozasertib] + N.N.[Cl][Pt][Cl] [cisplatin] (first compound 0.006 µM, partner dose 1.6 µM) | 84.4% | 159% | 90.6% | 145% | 71.2% | 125% | 48.6% | 114% | 281% | 132% |
| C[C@]12O[C@H](C[C@]1(O)CO)n1c3ccccc3c3c4c(c5c6ccccc6n2c5c31)CNC4=O [Lestaurtinib] + CC(=O)O[C@@]12CO[C@@H]1C[C@H](O)[C@@]1(C)C(=O)[C@H](O)C3=C(C)[C@@H](OC(=O)[C@H](O)[C@@H](NC(=O)OC(C)(C)C)c4ccccc4)C[C@@](O)([C@@H](OC(=O)c4ccccc4)[C@H]21)C3(C)C [Docetaxel] (first compound 0.004 µM, partner dose 0.0001 µM) | 96.1% | 522% | 291% | 255% | 186% | 137% | 150% | 64.3% | 101% | 63.3% |
| Cc1ccc(Nc2nccc(N(C)c3ccc4c(C)n(C)nc4c3)n2)cc1S(N)(=O)=O [Pazopanib] + C[C@]12O[C@H](C[C@]1(O)CO)n1c3ccccc3c3c4c(c5c6ccccc6n2c5c31)CNC4=O [Lestaurtinib] (first compound 0.4 µM, partner dose 0.004 µM) | 125% | 133% | 203% | 111% | 115% | 281% | 90.1% | 114% | 93.3% | 139% |
| Cc1cc(Nc2cc(N3CCN(C)CC3)nc(/C=C/c3ccccc3)n2)n[nH]1 + N.N.[Cl][Pt][Cl] [cisplatin] (first compound 0.04 µM, partner dose 1.6 µM) | 78.5% | 132% | 164% | 86.2% | 126% | 31.8% | 132% | 104% | 139% | 65.1% |
| Cn1cc(C2=C(c3cn(C4CCN(Cc5ccccn5)CC4)c4ccccc34)C(=O)NC2=O)c2ccccc21 [Enzastaurin] + Cn1c(Nc2ccc(C(F)(F)F)cc2)nc2cc(Oc3ccnc(-c4ncc(C(F)(F)F)[nH]4)c3)ccc21 [CHIR265] (first compound 0.8 µM, partner dose 0.08 µM) | 170% | 101% | 67.1% | 96.5% | 81.8% | 116% | 59.9% | 365% | 147% | 171% |
| C[C@]12O[C@H](C[C@]1(O)CO)n1c3ccccc3c3c4c(c5c6ccccc6n2c5c31)CNC4=O [Lestaurtinib] + Cc1cc(Nc2cc(N3CCN(C)CC3)nc(/C=C/c3ccccc3)n2)n[nH]1 [ENMD2076] (first compound 0.004 µM, partner dose 0.04 µM) | 120% | 134% | 92% | 89% | 72.5% | 91.8% | 130% | 214% | 257% | 113% |
| N.N.[Cl][Pt][Cl] [cisplatin] + C[C@@H](Oc1cc(-c2cnn(C3CCNCC3)c2)cnc1N)c1c(Cl)ccc(F)c1Cl [Crizotinib] (first compound 1.6 µM, partner dose 0.2 µM) | 47.7% | 93.9% | 106% | 49.5% | 158% | 160% | 176% | 104% | 140% | 96% |
| Cn1cc(C2=C(c3cn(C4CCN(Cc5ccccn5)CC4)c4ccccc34)C(=O)NC2=O)c2ccccc21 [Enzastaurin] + CS(=O)(=O)c1ccc(C(=O)Nc2ccc(Cl)c(-c3ccccn3)c2)c(Cl)c1 [vismodegib] (first compound 0.8 µM, partner dose 1 µM) | 64.7% | 76.4% | 48.6% | 113% | 69.6% | 43.7% | 130% | 106% | 21.6% | 91.1% |
| CC1(C)CCC(c2ccc(Cl)cc2)=C(CN2CCN(c3ccc(C(=O)NS(=O)(=O)c4ccc(N[C@H](CCN5CCOCC5)CSc5ccccc5)c(S(=O)(=O)C(F)(F)F)c4)cc3)CC2)C1 + C[As](C)SC[C@H](NC(=O)CC[C@H](N)C(=O)O)C(=O)NCC(=O)O [Darinaparsin] (first compound 0.4 µM, partner dose 0.4 µM) | 261% | 190% | 47.8% | 85.7% | 123% | 83.7% | 137% | 208% | 113% | 155% |
| CN(c1ncccc1CNc1nc(Nc2ccc3c(c2)CC(=O)N3)ncc1C(F)(F)F)S(C)(=O)=O + C[As](C)SC[C@H](NC(=O)CC[C@H](N)C(=O)O)C(=O)NCC(=O)O [Darinaparsin] (first compound 0.08 µM, partner dose 0.4 µM) | 110% | 140% | 133% | 132% | 62.5% | 126% | 127% | 103% | 175% | 62.5% |
